# Paper PMC9144521 (Viruses, 2022)
# Experiments:
# Vero cells = conditions: 48 h, CellTiter-Glo, concentrations tested up to 5 µM
# AdV5 = assay: Anti-AdV activity assay (IFA of hexon), secondary screen, AdV5; format: cell-based, Human adenoviruses type 5
# AdV3 = assay: Anti-AdV activity assay (IFA of hexon), secondary screen, AdV3; format: cell-based, Human adenoviruses type 3
# [1] = Vero cells, 48 h, IFA of hexon, 0.02 to 5 μM
smiles,measurement,setting,value
CC(C)n1nc(-c2cc3cc(O)ccc3[nH]2)c2c(N)ncnc21 [PP242],CC50,Vero cells,> 5 µM
same,Selective Index AdV5,"AdV5; CC50/EC50, Vero cells",>2.54
same,EC50,AdV5; [1],1.97 µM
same,Selective Index AdV3,"AdV3; CC50/EC50, Vero cells",>4.85
same,EC50,AdV3; [1],1.03 µM
